Measured values published in paper doi:10.1101/2020.04.30.071365.
No constants are given. Whether binding was seen depends on the method and setting. In cells and extracts the contact can be indirect. Some results given as binding are weak or reduced against the parent protein; the word gives no strength. For part of these data: Sequences can lack the tags named with a protein.

T1: cyclin F(WT)-flag (human) (UniProt P41002)
T1 sequence: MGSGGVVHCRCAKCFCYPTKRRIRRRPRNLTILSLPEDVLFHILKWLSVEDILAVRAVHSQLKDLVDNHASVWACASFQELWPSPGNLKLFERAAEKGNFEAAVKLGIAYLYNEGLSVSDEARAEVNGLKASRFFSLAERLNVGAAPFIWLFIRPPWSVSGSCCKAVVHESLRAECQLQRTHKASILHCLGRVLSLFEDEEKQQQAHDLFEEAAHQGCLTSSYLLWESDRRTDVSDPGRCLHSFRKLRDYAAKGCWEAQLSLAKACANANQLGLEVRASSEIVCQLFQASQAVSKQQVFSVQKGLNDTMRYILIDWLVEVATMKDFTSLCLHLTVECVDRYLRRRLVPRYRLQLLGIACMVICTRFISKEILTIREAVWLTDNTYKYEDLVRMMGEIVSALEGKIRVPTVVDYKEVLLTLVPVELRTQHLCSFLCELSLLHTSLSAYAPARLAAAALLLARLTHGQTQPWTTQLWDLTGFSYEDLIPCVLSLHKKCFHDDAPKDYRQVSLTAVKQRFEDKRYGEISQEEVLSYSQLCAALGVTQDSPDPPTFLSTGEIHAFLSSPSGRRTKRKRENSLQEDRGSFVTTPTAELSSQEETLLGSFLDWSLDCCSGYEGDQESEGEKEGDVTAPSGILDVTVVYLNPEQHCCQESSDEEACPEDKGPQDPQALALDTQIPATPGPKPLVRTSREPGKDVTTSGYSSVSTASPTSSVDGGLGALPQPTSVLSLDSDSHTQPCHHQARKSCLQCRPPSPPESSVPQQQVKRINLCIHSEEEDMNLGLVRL

T2: cyclin F(S621G)-flag (human) (UniProt P41002)
T2 sequence: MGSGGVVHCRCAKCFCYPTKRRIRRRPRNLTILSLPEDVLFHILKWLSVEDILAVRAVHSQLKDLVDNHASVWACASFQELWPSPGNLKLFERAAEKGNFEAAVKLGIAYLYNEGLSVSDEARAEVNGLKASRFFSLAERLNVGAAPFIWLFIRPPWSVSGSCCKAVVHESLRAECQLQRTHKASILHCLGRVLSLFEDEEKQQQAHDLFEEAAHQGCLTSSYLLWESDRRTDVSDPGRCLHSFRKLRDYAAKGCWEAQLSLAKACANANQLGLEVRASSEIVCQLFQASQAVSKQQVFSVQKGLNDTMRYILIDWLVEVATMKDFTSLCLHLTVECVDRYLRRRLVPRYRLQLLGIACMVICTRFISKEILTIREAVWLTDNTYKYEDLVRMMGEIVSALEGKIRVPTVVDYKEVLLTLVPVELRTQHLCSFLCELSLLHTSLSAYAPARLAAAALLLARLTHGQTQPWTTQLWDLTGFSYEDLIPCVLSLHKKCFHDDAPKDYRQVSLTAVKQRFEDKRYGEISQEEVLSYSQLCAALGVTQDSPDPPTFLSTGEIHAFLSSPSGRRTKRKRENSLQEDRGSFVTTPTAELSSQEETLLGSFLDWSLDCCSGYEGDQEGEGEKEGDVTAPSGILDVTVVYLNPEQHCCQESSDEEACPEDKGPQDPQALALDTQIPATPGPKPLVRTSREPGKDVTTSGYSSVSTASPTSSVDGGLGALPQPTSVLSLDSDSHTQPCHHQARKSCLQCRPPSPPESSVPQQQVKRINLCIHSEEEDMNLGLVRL

T3: mCherry-cyclin F(WT) (human) (UniProt P41002)
T3 sequence: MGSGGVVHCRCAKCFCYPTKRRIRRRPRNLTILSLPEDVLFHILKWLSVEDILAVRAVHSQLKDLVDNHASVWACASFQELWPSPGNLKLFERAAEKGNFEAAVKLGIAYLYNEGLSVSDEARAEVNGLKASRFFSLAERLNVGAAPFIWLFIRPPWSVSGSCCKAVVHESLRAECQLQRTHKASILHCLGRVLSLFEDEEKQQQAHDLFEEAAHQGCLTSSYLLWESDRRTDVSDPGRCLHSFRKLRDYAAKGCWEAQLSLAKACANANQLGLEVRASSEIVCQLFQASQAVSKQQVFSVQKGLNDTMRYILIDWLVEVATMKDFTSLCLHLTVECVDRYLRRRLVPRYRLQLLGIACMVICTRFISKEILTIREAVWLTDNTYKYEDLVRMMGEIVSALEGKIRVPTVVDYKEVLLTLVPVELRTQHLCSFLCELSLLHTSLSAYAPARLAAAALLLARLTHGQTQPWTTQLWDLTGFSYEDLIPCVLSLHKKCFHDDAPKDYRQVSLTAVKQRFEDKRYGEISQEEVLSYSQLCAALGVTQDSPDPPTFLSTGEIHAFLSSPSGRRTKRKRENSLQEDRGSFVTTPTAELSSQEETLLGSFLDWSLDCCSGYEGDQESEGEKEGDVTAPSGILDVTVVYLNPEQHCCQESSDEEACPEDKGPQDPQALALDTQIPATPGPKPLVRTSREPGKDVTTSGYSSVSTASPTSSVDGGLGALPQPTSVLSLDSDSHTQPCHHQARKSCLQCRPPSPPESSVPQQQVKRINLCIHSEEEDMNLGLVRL

T4: mCherry-cyclin F(S621G) (human) (UniProt P41002)
T4 sequence: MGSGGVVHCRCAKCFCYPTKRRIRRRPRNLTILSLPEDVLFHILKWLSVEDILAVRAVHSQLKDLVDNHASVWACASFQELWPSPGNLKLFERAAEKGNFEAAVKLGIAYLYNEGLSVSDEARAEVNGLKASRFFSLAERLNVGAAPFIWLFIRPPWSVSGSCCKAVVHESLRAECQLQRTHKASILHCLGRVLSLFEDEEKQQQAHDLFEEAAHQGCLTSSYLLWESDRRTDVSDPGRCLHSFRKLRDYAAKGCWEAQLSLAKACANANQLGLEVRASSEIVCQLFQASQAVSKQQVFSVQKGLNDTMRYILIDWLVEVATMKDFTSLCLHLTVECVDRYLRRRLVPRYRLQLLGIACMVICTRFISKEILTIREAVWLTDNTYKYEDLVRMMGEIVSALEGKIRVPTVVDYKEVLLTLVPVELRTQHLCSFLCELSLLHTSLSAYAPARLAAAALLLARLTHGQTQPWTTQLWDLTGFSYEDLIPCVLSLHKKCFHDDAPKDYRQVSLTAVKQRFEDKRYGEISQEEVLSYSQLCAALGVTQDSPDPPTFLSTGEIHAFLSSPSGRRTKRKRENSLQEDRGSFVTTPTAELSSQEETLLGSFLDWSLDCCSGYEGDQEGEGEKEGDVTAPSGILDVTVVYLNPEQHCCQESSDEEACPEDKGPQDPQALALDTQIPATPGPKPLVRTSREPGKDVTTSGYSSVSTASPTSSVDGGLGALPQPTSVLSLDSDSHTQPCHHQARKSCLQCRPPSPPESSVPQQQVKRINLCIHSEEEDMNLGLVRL


Experiments:
Experiment in all cases: co-IP
[1] = target: T1, cyclin F(WT)-flag (human)
[2] = target: T2, cyclin F(S621G)-flag (human)
[3] = target: T3, mCherry-cyclin F(WT) (human)
[4] = target: T4, mCherry-cyclin F(S621G) (human)

binding [1] | binding [2] | binding [3] | binding [4] | Binder
binds | binds | binds | binds | endogenous RBM14 (protein, UniProt Q96PK6 1-669) MKIFVGNVDGADTTPEELAALFAPYGTVMSCAVMKQFAFVHMRENAGALRAIEALHGHELRPGRALVVEMSRPRPLNTWKIFVGNVSAACTSQELRSLFERRGRVIECDVVKDYAFVHMEKEADAKAAIAQLNGKEVKGKRINVELSTKGQKKGPGLAVQSGDKTKKPGAGDTAFPGTGGFSATFDYQQAFGNSTGGFDGQARQPTPPFFGRDRSPLRRSPPRASYVAPLTAQPATYRAQPSVSLGAAYRAQPSASLGVGYRTQPMTAQAASYRAQPSVSLGAPYRGQLASPSSQSAAASSLGPYGGAQPSASALSSYGGQAAAASSLNSYGAQGSSLASYGNQPSSYGAQAASSYGVRAAASSYNTQGAASSLGSYGAQAASYGAQSAASSLAYGAQAASYNAQPSASYNAQSAPYAAQQAASYSSQPAAYVAQPATAAAYASQPAAYAAQATTPMAGSYGAQPVVQTQLNSYGAQASMGLSGSYGAQSAAAATGSYGAAAAYGAQPSATLAAPYRTQSSASLAASYAAQQHPQAAASYRGQPGNAYDGAGQPSAAYLSMSQGAVANANSTPPPYERTRLSPPRASYDDPYKKAVAMSKRYGSDRRLAELSDYRRLSESQLSFRRSPTKSSLDYRRLPDAHSDYARYSGSYNDYLRAAQMHSGYQRRM
binds | binds |  |  | RBM14-HA (protein, UniProt Q96PK6 1-669) MKIFVGNVDGADTTPEELAALFAPYGTVMSCAVMKQFAFVHMRENAGALRAIEALHGHELRPGRALVVEMSRPRPLNTWKIFVGNVSAACTSQELRSLFERRGRVIECDVVKDYAFVHMEKEADAKAAIAQLNGKEVKGKRINVELSTKGQKKGPGLAVQSGDKTKKPGAGDTAFPGTGGFSATFDYQQAFGNSTGGFDGQARQPTPPFFGRDRSPLRRSPPRASYVAPLTAQPATYRAQPSVSLGAAYRAQPSASLGVGYRTQPMTAQAASYRAQPSVSLGAPYRGQLASPSSQSAAASSLGPYGGAQPSASALSSYGGQAAAASSLNSYGAQGSSLASYGNQPSSYGAQAASSYGVRAAASSYNTQGAASSLGSYGAQAASYGAQSAASSLAYGAQAASYNAQPSASYNAQSAPYAAQQAASYSSQPAAYVAQPATAAAYASQPAAYAAQATTPMAGSYGAQPVVQTQLNSYGAQASMGLSGSYGAQSAAAATGSYGAAAAYGAQPSATLAAPYRTQSSASLAASYAAQQHPQAAASYRGQPGNAYDGAGQPSAAYLSMSQGAVANANSTPPPYERTRLSPPRASYDDPYKKAVAMSKRYGSDRRLAELSDYRRLSESQLSFRRSPTKSSLDYRRLPDAHSDYARYSGSYNDYLRAAQMHSGYQRRM
